Values joined by “and” are separate entries in the source; they are usually repeats but may differ in a detail not shown here. Equal entries are not always repeated.
Legend:
[1] = test system: subdural hematoma; details: small-dose atorvastatin
[2] = test system: VEGF, TGF-β, MMP-9 and Ang-1/2; experiment: Rat subdural hematoma model: factor expression in hematoma capsule/cavity (real-time PCR, ELISA); assay type: in vivo; details: small-dose group 3 mg/kg/day, 7 days after the operation, vs control and large-dose group
Excerpt: In FIG. 1 to FIG. 9, “#” denotes a statistically significant difference in the small-dose group and the large-dose group as compared with the control group; and “*” denotes a statistically significant difference between the small-dose group and the large-dose group.

[3] = test system: chronic subdural hematoma; details: atorvastatin alone
[4] = test system: subcutaneous hematoma; details: large-dose group compared with small-dose atorvastatin group

## CC(C)c1c(C(=O)Nc2ccccc2)c(-c2ccccc2)c(-c2ccc(F)cc2)n1CC[C@@H](O)C[C@@H](O)CC(=O)O [atorvastatin]
[1]
  absorption of hematoma: accelerated
[2]
  ratio Ang-1/Ang-2: significantly higher
[3]; among the 52 patients
  patients with a poor hematoma absorption effect: 7 patients
[3]; one month after administration
  average hematoma absorption rate: 49.43% and 49%
[4]
  hematoma absorption speed: not significantly improved

Source: patent US10646496B2, “Joint application of statin and adrenocortical hormone for treating chronic subdural hematoma” (priority 2016, dated 2020)
